According to the supplement of paper PMC10338343:
± gives the standard deviation. This is a selection; strong and weak results do not stand in their true shares. Many of these values have a large error.

test system: MIWI (PIWIL1) piRISC loaded with piRNA #2 (30 nt); assay: pre-steady-state target cleavage rate (min^-1); MIWI and MILI are mouse PIWI proteins and EfPiwi is from a freshwater sponge; tags in brackets are library labels; higher = faster piRNA-guided slicing of the target; conditions: guide: piRNA #2 5'p-UUAGGUAACCCAGUAGAUCCAGAGGAAUUC; auxiliary factor: 500 nM mouse GTSF1
Method: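 Cleave-'n-Seq: a library of target RNAs (target site embedded in constant flanks, ACAGCATTCCGCGTTAGTGATATCCG... 5' flank; DNA-blocked outside the site) at 0.1 nM was incubated with 1 nM active mouse MILI or MIWI piRISC (synthetic 5'-monophosphorylated piRNA guide) with or without 500 nM mouse GTSF1 at 33 °C for 1 min to 16 h. Uncleaved targets were sequenced and normalised to non-target controls, and the pooled three trials were fitted to a burst-and-steady-state model to give the pre-steady-state cleavage rate (min^-1; k3 is constrained to at most 1e-4). Sequence is the target site only; target names encode pairing extent (gX:gY) and contiguous / 1-mismatch / 2-mismatch / bulge geometry. Fits with R² ≤ 0 are excluded.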

Sequence | pre-steady-state target cleavage rate
CUUAAGGAGACGAUCUGCUGGGUUACCUAA | 0.000946 ± 0.0066
GAAUUCCUCUGGAUCUAGACGGUUACCUAA | 0.00251 ± 0.0044
CUUAAGGAGACCUUCUACUGGGUUACCUAA [g2:g17:cont:t1A] | 0.00291 ± 0.0037
CUUAAGGAGACCUUCUACUGGGUUACCUA | 0.00104 ± 0.012
CUAUUCCUCUGGAUCUACUGGGUUACGUAA | 0.63 ± 0.047
CUUAAGGAGACCUAGAACUGGGUCACCUAA | 0.000318 ± 0.023
CUAAUCCUCUGGAUCUACUGGGUUACCUAA | 0.412 ± 0.061
CUUAAGGAGACCUAGUAGUGGGUUACGUAA | 0.000465 ± 0.014
CUUUUCCUCUGGAUCUGACUGGGUUACCUAA | 0.000851 ± 0.0094
CUUAAGGAGACCUAGAUCUGGGUUACCUGA | 0.000477 ± 0.013
CUUUUCCUCUGGAUCUACUGGGUUACGUAA | 0.664 ± 0.034
CUUAACCUCUGGAUCUACUGCCAUACCUAA | 0.00244 ± 0.0044
CUUAAGGAGUGGAACUACUGGGUUACCAAA | 0.00137 ± 0.015
CUUAAGGAGACGAUCAACUGGGUUACCUUA | 0.00028 ± 0.0087
CUUAAGGAGACCAUGUACUGGGUUACCUAA | 0.00111 ± 0.0042
CAAUUCCUCUGGAUCUACUGGGUUACAUAA | 0.739 ± 0.053
CUUAAGGAGACGAUCUACUGGGAUACCUUA | 0.000102 ± 0.039
CAAUUCCUCUGGAUCUACUGGGUUACCAUAA | 0.588 ± 0.078
CUUUUCCUCAGGAUCUACUGGGUUACGUAA | 0.523 ± 0.067
CUAUUCCUCUGGAUCUACUCCCUUACCUAA | 0.000383 ± 0.017
CUUAAGGUCUGGAAGAACUGGGUUACCUAA | 0.00571 ± 0.011
CUUAAGGAGACCUACUACGGGUUACCUAA | 0.000821 ± 0.011
CUUAAGGUCUGGAUCUAGUGGCUUACCUAA | 0.00488 ± 0.0063
CUUAAGGAGUGGAUCUACUGGUUACCUAA | 0.000967 ± 0.015

Sequence | pre-steady-state target cleavage rate
CAAUUCCUCUGGAUCAUGUGGGUUACCUAA | 0.000783 ± 0.012
GAAAUCCUCUCGAUCUACUGGGUUACCUAA | 0.586 ± 0.054
CUUAAGGAGACCUUCUACUGGGUUACCUAC [g2:g17:cont:t1C] | 0.00116 ± 0.0086
CUUAAGGAGACGAUCUACUGGGUGUACCUAA | 0.000498 ± 0.016
CUUAAGGAGAGGAUCUACUGUGGUUACCUAA | 0.000202 ± 0.037
CUUAAGGAGACCUAGAUGUGCGGUUACCUAA | 0.00105 ± 0.0081
CUAUUCCUCUGGAUAUACUGGGUUACCUAA | 0.772 ± 0.057
CUUAAGGAGAGGUUCUACUCGGUUACCUAA | 0.0013 ± 0.0062
CUUAAGGAGUGGAUCUUACUGGGUUACCUAA | 0.000234 ± 0.021
CUUAAGGAGACGUUCUACUGGGUUACCUUA | 0.000888 ± 0.0069
CUUAAGGAGAGGAUCUACUGGAGUUACCUAA | 0.00169 ± 0.0084
CUUAAGGAGACGAUCUAGUGGCUUACCUAA | 0.000127 ± 0.024
CUUAAGGAGACCUAGUACUGGGUUACCUAG [g2:g15:cont:t1G] | 0.00118 ± 0.0084
CUUAAGGAGACCAUCUACCUGGGUUACCUAA | 0.00225 ± 0.0038
CUUAAGGAGACGUUCUACUGGGUUACCUAA | 0.00134 ± 0.0058
CUUUUCCUCUGGAUCUAGACGGUUACCUAA | 0.000724 ± 0.012
CUUAAGGACUGGUUCUACUGGGUUUCCUAA | 0.007 ± 0.011
CUUAAGGAGACCUUCUACUGGCAAACCUAA | 0.000684 ± 0.015
CUUAAGGAGAGGACUCUACUGGGUUACCUAA | 0.00138 ± 0.011
CUUAAGGAGACCUUCUACUGGAGUUACCUAA | 0.00256 ± 0.0067
CUUAAGGAGACCAUCUACUGGGUUAGCUAA | 0.00126 ± 0.004
CAAUUCCUCUCGGAUCUACUGGGUUACCUAA | 0.506 ± 0.065
CUUAAGGAGUGCAUCUACUGGCUUACCUAA | 0.000521 ± 0.016
CUAUUCCUCUCGAUCUACUCGGUUACCUAA | 0.196 ± 0.017

Sequence | pre-steady-state target cleavage rate
CUUAAGGACUGUAUCUACUGGGUUACCUAA | 0.00763 ± 0.017
CUUAAGGAGACCUAGUUACUGGGUUACCUAA | 0.00113 ± 0.006
CUUAAGGAGACGUUCUAGUGGGUUACCUAA | 0.000284 ± 0.022
CUUAAGGAGAGGAUCUACUCGGUUACCUUA | 0.000165 ± 0.044
CUUAAGGAGACCUACUCACUGGGUUACCUAA | 0.00136 ± 0.0066
CUUAAGGAGACGAUCUACUCGGUUACCUUA | 0.000528 ± 0.014
CUAUUCCUCUGGAUACUACUGGGUUACCUAA | 0.422 ± 0.056
CUUAAGGAGACCAUCUCUGGGUUACCUAA | 0.00213 ± 0.006
GAAUUCCUCUGGAUCUUCUGGGAUACCUAA | 0.108 ± 0.018
CUUAAGGAGACGCAUCUACUGGGUUACCUAA | 0.00158 ± 0.0051
CUUAAGCUCUGGAUCUACUGCGGUUACCUAA | 0.000174 ± 0.027
CUUAAGGAGACCUAGAAUGGGUUACCUAA | 0.000624 ± 0.014
CUUAAGGAGUGGAGUCUACUGGGUUACCUAA | 0.00527 ± 0.0059
CUUAAGGAGACGAUCUACAGGGUUACCUUA | 0.00188 ± 0.0071
CAAUUCCUCUGGAUCUAUCUGGGUUACCUAA | 0.00387 ± 0.0041
CUAUUCCUCUCCAUCUACUGGGUUACCUAA | 0.647 ± 0.051
CUUAACCUCUGGAUCAACUCGGUUACCUAA | 0.0679 ± 0.013
CUUAAGGAGUGGAUCUACUGGGUUCCUAA | 0.00101 ± 0.0083
CUUAAGGAGUGGAUCUACUGGGUACCUAA | 0.000194 ± 0.022
CUUAACCUCUGGAUGUUCUGGGUUACCUAA | 0.244 ± 0.019
CUUAAGGAGACCUUCUACCGGGUUACCUAA | 0.00321 ± 0.0042
CUUAUCCUCUGGAUCUACUGUGGUUACCUAA | 0.00103 ± 0.01
CUUAAGGAGUGGAUCUACUGGGUAACCUUA | 0.00262 ± 0.0066

4 entries from above, as tab-separated lines.
Sequence	pre-steady-state target cleavage rate
CUUUUCCUCAGGAUCUACUGGGUUACGUAA	0.523 ± 0.067
CUUAAGGAGACCUUCUACUGGGUUACCUAC [g2:g17:cont:t1C]	0.00116 ± 0.0086
CUUAAGGACUGGUUCUACUGGGUUUCCUAA	0.007 ± 0.011
CUUAAGGAGACCUUCUACUGGCAAACCUAA	0.000684 ± 0.015
